Measurements published in paper PMC6224091.
No constants are given. Whether binding was seen depends on the method and setting. Binding seen in cells or lysates may run through a third protein. Some entries that bind do so weakly or less than the wild type. For some assays here: Sequences can lack the tags named with a protein.

Chains of the proteins cited; added tags and fusions are not shown. Lines headed by an entry give the natural chain unless they say otherwise; changes in a name come on top.
UniProt Q6XZF7: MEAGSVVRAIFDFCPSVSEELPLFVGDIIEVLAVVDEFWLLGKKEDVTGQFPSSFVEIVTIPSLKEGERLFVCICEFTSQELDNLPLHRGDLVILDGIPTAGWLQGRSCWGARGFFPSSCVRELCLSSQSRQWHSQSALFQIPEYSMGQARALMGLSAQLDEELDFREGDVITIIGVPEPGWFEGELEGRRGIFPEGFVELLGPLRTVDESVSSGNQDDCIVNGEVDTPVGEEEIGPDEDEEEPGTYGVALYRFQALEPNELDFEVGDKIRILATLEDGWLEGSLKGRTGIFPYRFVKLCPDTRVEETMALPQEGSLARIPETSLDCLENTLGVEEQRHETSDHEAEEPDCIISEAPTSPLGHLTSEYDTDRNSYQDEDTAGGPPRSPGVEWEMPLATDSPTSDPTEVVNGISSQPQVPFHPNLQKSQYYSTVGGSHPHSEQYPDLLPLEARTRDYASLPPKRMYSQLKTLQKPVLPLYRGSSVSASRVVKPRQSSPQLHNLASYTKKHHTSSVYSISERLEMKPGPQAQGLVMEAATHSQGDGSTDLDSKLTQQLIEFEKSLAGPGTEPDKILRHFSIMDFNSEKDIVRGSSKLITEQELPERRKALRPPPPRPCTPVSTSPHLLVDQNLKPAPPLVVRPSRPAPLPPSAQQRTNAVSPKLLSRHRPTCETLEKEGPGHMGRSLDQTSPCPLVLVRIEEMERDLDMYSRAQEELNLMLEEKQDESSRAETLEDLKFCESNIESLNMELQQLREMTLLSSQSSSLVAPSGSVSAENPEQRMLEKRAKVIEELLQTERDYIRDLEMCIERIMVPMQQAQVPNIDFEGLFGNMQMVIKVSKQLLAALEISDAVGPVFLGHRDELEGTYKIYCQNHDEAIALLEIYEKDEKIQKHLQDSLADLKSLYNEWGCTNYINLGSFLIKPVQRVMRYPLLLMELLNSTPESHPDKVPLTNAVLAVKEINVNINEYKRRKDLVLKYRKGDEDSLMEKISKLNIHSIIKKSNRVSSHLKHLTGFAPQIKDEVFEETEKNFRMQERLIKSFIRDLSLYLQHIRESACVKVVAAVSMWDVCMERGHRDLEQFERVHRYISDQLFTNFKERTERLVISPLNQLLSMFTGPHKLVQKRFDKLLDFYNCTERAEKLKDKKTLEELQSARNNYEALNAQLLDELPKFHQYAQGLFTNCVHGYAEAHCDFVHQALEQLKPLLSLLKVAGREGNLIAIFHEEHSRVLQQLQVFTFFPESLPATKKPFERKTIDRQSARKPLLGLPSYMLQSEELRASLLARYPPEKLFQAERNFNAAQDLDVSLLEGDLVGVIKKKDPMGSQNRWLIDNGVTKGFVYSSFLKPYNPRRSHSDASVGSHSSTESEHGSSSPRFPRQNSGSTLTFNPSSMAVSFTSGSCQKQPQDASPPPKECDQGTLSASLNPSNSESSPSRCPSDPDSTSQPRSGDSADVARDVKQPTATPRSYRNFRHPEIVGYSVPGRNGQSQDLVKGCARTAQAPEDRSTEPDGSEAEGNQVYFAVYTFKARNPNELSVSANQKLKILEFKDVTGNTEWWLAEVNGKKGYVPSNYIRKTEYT
UniProt P60953: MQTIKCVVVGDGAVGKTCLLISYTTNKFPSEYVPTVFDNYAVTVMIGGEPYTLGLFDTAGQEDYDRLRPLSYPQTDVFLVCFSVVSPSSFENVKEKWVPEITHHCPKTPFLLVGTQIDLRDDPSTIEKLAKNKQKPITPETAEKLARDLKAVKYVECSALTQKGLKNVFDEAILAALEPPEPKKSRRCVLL

How the values were obtained:
[1] = molecular target: YFP-Tuba (UniProt Q6XZF7); assay: co-IP; YFP-Tuba captured on agarose beads coupled to GFP-binding protein (GBP) from cleared lysate of transfected HEK293T cells, 1 h at 4°C; 1% Nonidet P-40 substitute, 10% glycerol, 50 mM Tris-HCl pH 7.4, 2.0 mM MgCl2, 200 mM NaCl; V5-Par6A (WT or mutant), HA-Cdc42(G12V) and YFP-Tuba co-expressed
[2] = molecular target: T1, V5-Par6A (wild type) (UniProt Q9NPB6); assay: as above
T1 sequence: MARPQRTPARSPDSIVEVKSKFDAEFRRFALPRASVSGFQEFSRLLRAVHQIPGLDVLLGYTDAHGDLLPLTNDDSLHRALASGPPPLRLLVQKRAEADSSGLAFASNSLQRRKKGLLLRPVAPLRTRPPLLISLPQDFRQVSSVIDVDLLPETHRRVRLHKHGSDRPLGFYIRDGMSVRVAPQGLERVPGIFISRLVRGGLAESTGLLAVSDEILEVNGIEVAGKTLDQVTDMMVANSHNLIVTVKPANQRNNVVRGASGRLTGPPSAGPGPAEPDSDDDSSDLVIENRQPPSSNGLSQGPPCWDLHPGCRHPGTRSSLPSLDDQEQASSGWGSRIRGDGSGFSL

binding [1]: binds
binding [2]: binds
Substance: HA-Cdc42(G12V) (from UniProt P60953 1-191)
